# US10052387B2, “Ceramide reversal of multi-drug resistance” (Memorial Sloan-Kettering Cancer Center, priority 2013, dated 2018)
# What was measured:
# ADX cells = experiment: Transfer of radiolabeled ceramide from liposomes into ADX cells; format: cell-based, Chinese hamster
# ADX MDR cells = experiment: Daunorubicin-containing cytoplasmic vesicles in ADX cells; format: cell-based, Chinese hamster; details: 20 μm daunorubicin, steady-state at 2 hours
Structure (SMILES),"ceramide incorporated into ADX cells (ADX cells; 10 μM 14C-labeled C18:0 ceramide, two hours)","uptake by cells relative to C16:0 ceramide (ADX cells; 3H-labeled ceramide-containing liposomes, 2 h)",mean diameter of vesicles (ADX MDR cells),vesicles per cell (ADX MDR cells)
CCCCCCCCCCCCC/C=C/[C@@H](O)[C@H](CO)NC(=O)CCCCCCCCCCCCCCCCC [C18:0 ceramide],339±12 pmoles/106 cells,about 50%,,
COc1cccc2c1C(=O)c1c(O)c3c(c(O)c1C2=O)C[C@@](O)(C(C)=O)C[C@@H]3O[C@H]1C[C@H](N)[C@H](O)[C@H](C)O1 [daunorubicin],,,0.67 ± 0.01 µM,38±6
